PubChem BioAssay AID1224830, NIAID – 2016

- Aim: 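Genes whose knock-down alters the TNF-alpha reporter response to LPS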 (primary screen)
- Cells: human THP-1 monocytic leukaemia cells, TNF dual-luciferase reporter clone, PMA-differentiated to macrophage-like cells
- Reagents: siRNA pool against human genes, 50 nM
- Duration: LPS for 4 h, given about 3 days after siRNA transfection
- Challenge: bacterial LPS (TLR4 ligand), 10 ng/ml
- Measurement: 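Ratio of firefly to renilla light, scaled to the plate median and expressed as a robust z-score per replicate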
- Reading the numbers: TNF reporter robust z-score: higher = stronger TNF reporter response to LPS
- Hit rule: 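a well is active when its z-score exceeds 2.8 or falls below -1.5; control wells carry no call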
The deposit covers about 18,000 reagents; below is a random part of them. About 2,900 of all reagents (16%) count as active. 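Calls are made per well; low scores hint the gene aids the LPS response, high scores that it dampens it.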 Repeated entries: four replicate wells of each siRNA pool. No sequences are given here.

gene symbol	TNF reporter robust z-score	Outcome
LCLAT1 (lysocardiolipin acyltransferase 1)	0.47	inactive
LCLAT1 (lysocardiolipin acyltransferase 1)	0.65	inactive
LCLAT1 (lysocardiolipin acyltransferase 1)	0.1	inactive
LCLAT1 (lysocardiolipin acyltransferase 1)	-0.43	inactive
RAD18 (RAD18 E3 ubiquitin protein ligase)	0.28	inactive
RAD18 (RAD18 E3 ubiquitin protein ligase)	0.91	inactive
RAD18 (RAD18 E3 ubiquitin protein ligase)	-0.08	inactive
RAD18 (RAD18 E3 ubiquitin protein ligase)	0.16	inactive
GPN1 (GPN-loop GTPase 1)	-0.44	inactive
GPN1 (GPN-loop GTPase 1)	-0.91	inactive
GPN1 (GPN-loop GTPase 1)	0.24	inactive
GPN1 (GPN-loop GTPase 1)	0.57	inactive
TNNC1 (troponin C1, slow skeletal and cardiac type)	1.51	inactive
TNNC1 (troponin C1, slow skeletal and cardiac type)	2.58	inactive
TNNC1 (troponin C1, slow skeletal and cardiac type)	-1.51	active
TNNC1 (troponin C1, slow skeletal and cardiac type)	0.82	inactive
MARF1 (meiosis regulator and mRNA stability factor 1)	2.54	inactive
MARF1 (meiosis regulator and mRNA stability factor 1)	1.86	inactive
MARF1 (meiosis regulator and mRNA stability factor 1)	1.7	inactive
MARF1 (meiosis regulator and mRNA stability factor 1)	-0.55	inactive
HMGB4 (high mobility group box 4)	-0.33	inactive
HMGB4 (high mobility group box 4)	0.94	inactive
HMGB4 (high mobility group box 4)	0.97	inactive
HMGB4 (high mobility group box 4)	1.19	inactive
TLX1NB (TLX1 neighbor)	0.23	inactive
TLX1NB (TLX1 neighbor)	1.47	inactive
TLX1NB (TLX1 neighbor)	0.46	inactive
TLX1NB (TLX1 neighbor)	0.22	inactive
PAX1 (paired box 1)	-0.21	inactive
PAX1 (paired box 1)	-0.7	inactive
PAX1 (paired box 1)	-0.27	inactive
PAX1 (paired box 1)	-0.91	inactive
OXER1 (oxoeicosanoid receptor 1)	1.8	inactive
OXER1 (oxoeicosanoid receptor 1)	1.77	inactive
OXER1 (oxoeicosanoid receptor 1)	1.41	inactive
OXER1 (oxoeicosanoid receptor 1)	1.5	inactive
FOLR3 (folate receptor gamma)	0.08	inactive
FOLR3 (folate receptor gamma)	-1.27	inactive
FOLR3 (folate receptor gamma)	-0.38	inactive
FOLR3 (folate receptor gamma)	0.91	inactive
MAP3K8 (mitogen-activated protein kinase kinase kinase 8)	-1.43	inactive
MAP3K8 (mitogen-activated protein kinase kinase kinase 8)	-0.53	inactive
MAP3K8 (mitogen-activated protein kinase kinase kinase 8)	-0.99	inactive
MAP3K8 (mitogen-activated protein kinase kinase kinase 8)	-0.96	inactive
ZNF2 (zinc finger protein 2)	-0.67	inactive
ZNF2 (zinc finger protein 2)	0.51	inactive
ZNF2 (zinc finger protein 2)	-1.01	inactive
ZNF2 (zinc finger protein 2)	-0.01	inactive
TXNDC8 (thioredoxin domain containing 8)	1.37	inactive
TXNDC8 (thioredoxin domain containing 8)	2.41	inactive
TXNDC8 (thioredoxin domain containing 8)	1.57	inactive
TXNDC8 (thioredoxin domain containing 8)	1.11	inactive
CD22 (CD22 molecule)	0.47	inactive
CD22 (CD22 molecule)	0.77	inactive
CD22 (CD22 molecule)	1.17	inactive
CD22 (CD22 molecule)	0.13	inactive
VCF1 (VCP nuclear cofactor family member 1)	0.7	inactive
VCF1 (VCP nuclear cofactor family member 1)	1.19	inactive
VCF1 (VCP nuclear cofactor family member 1)	1.99	inactive
VCF1 (VCP nuclear cofactor family member 1)	1.2	inactive
ANKRD13C (ankyrin repeat domain 13C)	-0.22	inactive
ANKRD13C (ankyrin repeat domain 13C)	0.31	inactive
ANKRD13C (ankyrin repeat domain 13C)	1.33	inactive
ANKRD13C (ankyrin repeat domain 13C)	0.67	inactive
ZNF33A (zinc finger protein 33A)	0.54	inactive
ZNF33A (zinc finger protein 33A)	0.35	inactive
ZNF33A (zinc finger protein 33A)	0.5	inactive

Continued; the last 16 above are carried over.
gene symbol	TNF reporter robust z-score	Outcome
TXNDC8 (thioredoxin domain containing 8)	1.11	inactive
CD22 (CD22 molecule)	0.47	inactive
CD22 (CD22 molecule)	0.77	inactive
CD22 (CD22 molecule)	1.17	inactive
CD22 (CD22 molecule)	0.13	inactive
VCF1 (VCP nuclear cofactor family member 1)	0.7	inactive
VCF1 (VCP nuclear cofactor family member 1)	1.19	inactive
VCF1 (VCP nuclear cofactor family member 1)	1.99	inactive
VCF1 (VCP nuclear cofactor family member 1)	1.2	inactive
ANKRD13C (ankyrin repeat domain 13C)	-0.22	inactive
ANKRD13C (ankyrin repeat domain 13C)	0.31	inactive
ANKRD13C (ankyrin repeat domain 13C)	1.33	inactive
ANKRD13C (ankyrin repeat domain 13C)	0.67	inactive
ZNF33A (zinc finger protein 33A)	0.54	inactive
ZNF33A (zinc finger protein 33A)	0.35	inactive
ZNF33A (zinc finger protein 33A)	0.5	inactive
TENM1 (teneurin transmembrane protein 1)	1.21	inactive
TENM1 (teneurin transmembrane protein 1)	0.6	inactive
TENM1 (teneurin transmembrane protein 1)	-0.81	inactive
TENM1 (teneurin transmembrane protein 1)	-0.85	inactive
JMY (junction mediating and regulatory protein, p53 cofactor)	0.5	inactive
JMY (junction mediating and regulatory protein, p53 cofactor)	0.48	inactive
JMY (junction mediating and regulatory protein, p53 cofactor)	0.06	inactive
JMY (junction mediating and regulatory protein, p53 cofactor)	0.8	inactive
TIMM23B (translocase of inner mitochondrial membrane 23 homolog B)	3.29	active
TIMM23B (translocase of inner mitochondrial membrane 23 homolog B)	0.1	inactive
TIMM23B (translocase of inner mitochondrial membrane 23 homolog B)	-1.16	inactive
TIMM23B (translocase of inner mitochondrial membrane 23 homolog B)	0.11	inactive
AQP2 (aquaporin 2)	0.06	inactive
AQP2 (aquaporin 2)	-0.26	inactive
AQP2 (aquaporin 2)	-0.51	inactive
AQP2 (aquaporin 2)	-0.39	inactive
SLC37A2	-0.77	inactive
SLC37A2	-0.26	inactive
SLC37A2	-0.55	inactive
SLC37A2	0.33	inactive
EXTL3 (exostosin like glycosyltransferase 3)	0.69	inactive
EXTL3 (exostosin like glycosyltransferase 3)	1.81	inactive
EXTL3 (exostosin like glycosyltransferase 3)	0.98	inactive
EXTL3 (exostosin like glycosyltransferase 3)	0.29	inactive
ANTXR2 (ANTXR cell adhesion molecule 2)	-0.45	inactive
ANTXR2 (ANTXR cell adhesion molecule 2)	-1	inactive
ANTXR2 (ANTXR cell adhesion molecule 2)	-1.24	inactive
ANTXR2 (ANTXR cell adhesion molecule 2)	0.38	inactive
CHIA (chitinase acidic)	-0.87	inactive
CHIA (chitinase acidic)	0.98	inactive
CHIA (chitinase acidic)	-0.15	inactive
CHIA (chitinase acidic)	0.35	inactive
CNGA4 (cyclic nucleotide gated channel subunit alpha 4)	-0.98	inactive
CNGA4 (cyclic nucleotide gated channel subunit alpha 4)	0.93	inactive
CNGA4 (cyclic nucleotide gated channel subunit alpha 4)	0.17	inactive
CNGA4 (cyclic nucleotide gated channel subunit alpha 4)	-0.33	inactive
ADAT1 (adenosine deaminase tRNA specific 1)	0.65	inactive
ADAT1 (adenosine deaminase tRNA specific 1)	0.71	inactive
ADAT1 (adenosine deaminase tRNA specific 1)	0.76	inactive
ADAT1 (adenosine deaminase tRNA specific 1)	2.16	inactive
PPP2R5E (protein phosphatase 2 regulatory subunit B'epsilon)	-1.34	inactive
PPP2R5E (protein phosphatase 2 regulatory subunit B'epsilon)	-1.97	active
PPP2R5E (protein phosphatase 2 regulatory subunit B'epsilon)	-1.88	active
PPP2R5E (protein phosphatase 2 regulatory subunit B'epsilon)	-1.77	active
USP35 (ubiquitin specific peptidase 35)	1.66	inactive
USP35 (ubiquitin specific peptidase 35)	2.05	inactive
USP35 (ubiquitin specific peptidase 35)	1.55	inactive
USP35 (ubiquitin specific peptidase 35)	2.57	inactive
UVSSA (UV stimulated scaffold protein A)	-0.12	inactive
UVSSA (UV stimulated scaffold protein A)	-0.35	inactive
UVSSA (UV stimulated scaffold protein A)	0.07	inactive
UVSSA (UV stimulated scaffold protein A)	-0.98	inactive
FKBP6 (FKBP prolyl isomerase family member 6 (inactive))	1.02	inactive
FKBP6 (FKBP prolyl isomerase family member 6 (inactive))	0.86	inactive
FKBP6 (FKBP prolyl isomerase family member 6 (inactive))	0.87	inactive
FKBP6 (FKBP prolyl isomerase family member 6 (inactive))	0.85	inactive
C1QL2 (complement C1q like 2)	-0.42	inactive
C1QL2 (complement C1q like 2)	-0.14	inactive
C1QL2 (complement C1q like 2)	-0.13	inactive
C1QL2 (complement C1q like 2)	-0.17	inactive
DGKE (diacylglycerol kinase epsilon)	-1.22	inactive
DGKE (diacylglycerol kinase epsilon)	-1.01	inactive
DGKE (diacylglycerol kinase epsilon)	-0.94	inactive
DGKE (diacylglycerol kinase epsilon)	-0.74	inactive
H2BC13 (H2B clustered histone 13)	1.3	inactive
H2BC13 (H2B clustered histone 13)	1.62	inactive
H2BC13 (H2B clustered histone 13)	1.23	inactive
H2BC13 (H2B clustered histone 13)	1.57	inactive
ZNF33B (zinc finger protein 33B)	-0.94	inactive
ZNF33B (zinc finger protein 33B)	-0.91	inactive
ZNF33B (zinc finger protein 33B)	-0.86	inactive
ZNF33B (zinc finger protein 33B)	-0.9	inactive
USP53 (ubiquitin specific peptidase 53)	0.12	inactive
USP53 (ubiquitin specific peptidase 53)	0.42	inactive
USP53 (ubiquitin specific peptidase 53)	-0.33	inactive
USP53 (ubiquitin specific peptidase 53)	0.64	inactive
